Patent US20080182822A1, “Liquid Pharmaceutical Compositions Comprising a Bisphosphonate Compound” (Besins Healthcare SA, priority 2006, published 2008)
Values joined by “and” are separate entries in the source; they are usually repeats but may differ in a detail not shown here. Equal entries are not always repeated. Where two headings read alike, the source gives them in different places.

Experiments:
[1] = rat
[2] = rat, published data, Lin et al. 1999; cited from earlier work
[3] = In vitro dermal absorption, static diffusion cell (Franz cell)
[4] = buffered solution, compared to 100% phosphate buffer solution, FIG. 10 / FIG. 11

## NCCCC(O)(P(=O)(O)O)P(=O)(O)O [14C-alendronate]
[1]; dermal 1.9 mg (Group 2), individual animals
  Urinary Excretion, Total Excretion (% of Dose), 0-168 hours: 0.48% of Dose and 0.22% of Dose and 0.24% of Dose and 0.19% of Dose and 0.62% of Dose
[1]; in vivo, iv, 0.2 mg/kg
  Urinary Excretion, Total Excretion (% of Dose), 0-168 hours: 10.1% of Dose
[1]; intravenous 0.2 mg/kg (Group 1), individual animals, 0.2 mg/kg
  Urinary Excretion, Total Excretion (% of Dose), 0-168 hours: 4.4% of Dose and 6.5% of Dose

## NCCCC(O)(P(=O)(O)O)P(=O)(O)O [alendronate, 4-amino-1-hydroxybutylidene-1,1-bisphosphonic acid]
[1]; dermal 1.9 mg (Group 2), Mean
  Urinary Excretion, Total Excretion (% of Dose), 0-168 hours: 0.4 % of Dose
[2]
  urinary recovery after IV administration: 36%
[3]; FIG. 12 / FIG. 13
  effect of glycerine on the amount recovered in the receptor fluid and the dermis: neutral effect
[3]; [4]
  effect of propylene glycol (PG) on the amount recovered: tends to reduce
  effect of urea on the amount recovered in the receptor fluid and the skin/dermis: neutral effect
[3]; ethanol/water versus pure aqueous compositions, FIG. 4
  effect of the alcohol content in the formulation on the percentage of absorption: does not detrimentally affect
[3]; higher in rats than in humans
  in vitro absorption in rats versus in humans: 10 fold
[3]; menthol at 90% of saturating concentration in 90/10 phosphate buffer/ethanol, compared to pure phosphate buffer solution, FIG. 6 / FIG. 7
  effect of menthol on the amount recovered in the receptor fluid and dermis: does not increase
[3]; water/alcohol compositions, FIG. 1 / FIG. 2
  recovery in the receptor fluid and the dermis at 24 hrs (crossing of the skin): does cross the skin
[3]; water/alcohol ratios, FIG. 1 / FIG. 2
  effect of the increase in alcohol content on absorption, as percentage of the dose applied: not significantly modified
